Results on 4 substances are retold here after patent US8642545B2 (Jiangsu Hansoh Pharmaceutical Co., Ltd, priority 2007, dated 2014).

This data set can be described thus: general procedure: Fmoc solid-phase peptide synthesis; rink amind resin. Conditions: conjugation step.

Strings that start with PEPTIDE1 are HELM notation: dots part the residues, brackets hold end groups and non-standard residues.

On to “PEPTIDE1{[ac].G.G.T.Y.S.C.H.F.G.P.L.T.W.V.C.R.P.Q.R.G.[bAla].[Lys_open].[am]}|PEPTIDE2{[ac].G.G.T.Y.S.C.H.F.G.P.L.T.W.V.C.R.P.Q.R.G.[bAla].[Lys_open].[am]}|CHEM1{[LG3core]}$PEPTIDE1,PEPTIDE1,7:R3-16:R3|PEPTIDE2,PEPTIDE2,7:R3-16:R3|PEPTIDE1,CHEM1,23:R3-1:R1|PEPTIDE2,CHEM1,23:R3-1:R2$$$V2.0”, for which the conjugation yield entry is listed as “about 33%”.
With “PEPTIDE1{[ac].G.G.T.Y.S.C.H.F.G.S.L.T.W.V.C.R.P.Q.R.G.[bAla].[Lys_open].[am]}|PEPTIDE2{[ac].G.G.T.Y.S.C.H.F.G.S.L.T.W.V.C.R.P.Q.R.G.[bAla].[Lys_open].[am]}|CHEM1{[LG3core]}$PEPTIDE1,PEPTIDE1,7:R3-16:R3|PEPTIDE2,PEPTIDE2,7:R3-16:R3|PEPTIDE1,CHEM1,23:R3-1:R1|PEPTIDE2,CHEM1,23:R3-1:R2$$$V2.0” the entry was “about 33%”.
With “PEPTIDE1{[ac].G.G.T.Y.S.C.H.F.G.A.L.T.W.V.C.R.P.Q.R.G.[bAla].[Lys_open].[am]}|PEPTIDE2{[ac].G.G.T.Y.S.C.H.F.G.A.L.T.W.V.C.R.P.Q.R.G.[bAla].[Lys_open].[am]}|CHEM1{[LG3core]}$PEPTIDE1,PEPTIDE1,7:R3-16:R3|PEPTIDE2,PEPTIDE2,7:R3-16:R3|PEPTIDE1,CHEM1,23:R3-1:R1|PEPTIDE2,CHEM1,23:R3-1:R2$$$V2.0” the entry was “about 33%”; with “PEPTIDE1{[ac].G.G.T.Y.S.C.[Nle].F.G.P.L.T.W.V.C.R.P.Q.R.G.[bAla].[Lys_open].[am]}|PEPTIDE2{[ac].G.G.T.Y.S.C.[Nle].F.G.P.L.T.W.V.C.R.P.Q.R.G.[bAla].[Lys_open].[am]}|CHEM1{[LG3core]}$PEPTIDE1,PEPTIDE1,7:R3-16:R3|PEPTIDE2,PEPTIDE2,7:R3-16:R3|PEPTIDE1,CHEM1,23:R3-1:R1|PEPTIDE2,CHEM1,23:R3-1:R2$$$V2.0”, “about 32.7%”.
